# According to US10086108B2, “Hydrogels and use thereof in anastomosis procedures” (The United States of America, as represented by the …, priority 2015, dated 2018):
# The name of at least one read-out is uncertain.
# Assay: Oscillatory rheology of peptide hydrogels (formation, shear-thin/recovery, UV photodisruption)
# Assay type: physicochemical
# Conditions: 1000% strain for 30 seconds, then 0.2% strain; 1% w/v
# Source text: Oscillatory rheology was employed to study the rheological behavior of each gel under experimental conditions that mimic its use during the anastomosis procedure. Here, the storage modulus (G′), a measure of the gels' mechanical rigidity, is monitored in the rheometer under environmental conditions that mimic: (1) the initial (sol-gel) formation of the hydrogel in the syringe; (2) shear thinning of the material as it passes through the syringe needle during injection with subsequent hydrogel recovery in the vessel lumen; and (3) the disruption of the gel network (gel-sol) by UV photolysis after suturing. Monitoring gel behavior in a rheometer, although not exactly capturing the gel's response during the actual anastomosis procedure, allows quantitative and reproducible measurement of gel mechanical properties under highly controlled conditions. […] In regime I, the rate of hydrogel formation (sol-gel) is assessed in a time-sweep experiment that monitors the evolution of G′ after peptide folding and assembly is triggered for a 1% w/v solution of peptide. […] Lastly, using an optically clear parallel plate in the rheometer, the recovered hydrogel is subjected to irradiation by UV light (365 nm) for the first 10 minutes of regime III, where the effect of photolysis on the storage modulus is monitored over time. […]
row,Substance,"Recovery of original rigidity after shear thinning, regime II"
1,VKVKGKVKV^DPPTKVEZKVKV [APC2],about 5%
2,Ac-VKVKVKGKV^DPPTKZEVKVKV-NH2 [APC1],about 75%
